Sequences of proteins named here, by UniProt entry; tags and fusion partners are left off. A change or cut given only in a name is not applied to a line headed by its entry.
UniProt Q9UPY3: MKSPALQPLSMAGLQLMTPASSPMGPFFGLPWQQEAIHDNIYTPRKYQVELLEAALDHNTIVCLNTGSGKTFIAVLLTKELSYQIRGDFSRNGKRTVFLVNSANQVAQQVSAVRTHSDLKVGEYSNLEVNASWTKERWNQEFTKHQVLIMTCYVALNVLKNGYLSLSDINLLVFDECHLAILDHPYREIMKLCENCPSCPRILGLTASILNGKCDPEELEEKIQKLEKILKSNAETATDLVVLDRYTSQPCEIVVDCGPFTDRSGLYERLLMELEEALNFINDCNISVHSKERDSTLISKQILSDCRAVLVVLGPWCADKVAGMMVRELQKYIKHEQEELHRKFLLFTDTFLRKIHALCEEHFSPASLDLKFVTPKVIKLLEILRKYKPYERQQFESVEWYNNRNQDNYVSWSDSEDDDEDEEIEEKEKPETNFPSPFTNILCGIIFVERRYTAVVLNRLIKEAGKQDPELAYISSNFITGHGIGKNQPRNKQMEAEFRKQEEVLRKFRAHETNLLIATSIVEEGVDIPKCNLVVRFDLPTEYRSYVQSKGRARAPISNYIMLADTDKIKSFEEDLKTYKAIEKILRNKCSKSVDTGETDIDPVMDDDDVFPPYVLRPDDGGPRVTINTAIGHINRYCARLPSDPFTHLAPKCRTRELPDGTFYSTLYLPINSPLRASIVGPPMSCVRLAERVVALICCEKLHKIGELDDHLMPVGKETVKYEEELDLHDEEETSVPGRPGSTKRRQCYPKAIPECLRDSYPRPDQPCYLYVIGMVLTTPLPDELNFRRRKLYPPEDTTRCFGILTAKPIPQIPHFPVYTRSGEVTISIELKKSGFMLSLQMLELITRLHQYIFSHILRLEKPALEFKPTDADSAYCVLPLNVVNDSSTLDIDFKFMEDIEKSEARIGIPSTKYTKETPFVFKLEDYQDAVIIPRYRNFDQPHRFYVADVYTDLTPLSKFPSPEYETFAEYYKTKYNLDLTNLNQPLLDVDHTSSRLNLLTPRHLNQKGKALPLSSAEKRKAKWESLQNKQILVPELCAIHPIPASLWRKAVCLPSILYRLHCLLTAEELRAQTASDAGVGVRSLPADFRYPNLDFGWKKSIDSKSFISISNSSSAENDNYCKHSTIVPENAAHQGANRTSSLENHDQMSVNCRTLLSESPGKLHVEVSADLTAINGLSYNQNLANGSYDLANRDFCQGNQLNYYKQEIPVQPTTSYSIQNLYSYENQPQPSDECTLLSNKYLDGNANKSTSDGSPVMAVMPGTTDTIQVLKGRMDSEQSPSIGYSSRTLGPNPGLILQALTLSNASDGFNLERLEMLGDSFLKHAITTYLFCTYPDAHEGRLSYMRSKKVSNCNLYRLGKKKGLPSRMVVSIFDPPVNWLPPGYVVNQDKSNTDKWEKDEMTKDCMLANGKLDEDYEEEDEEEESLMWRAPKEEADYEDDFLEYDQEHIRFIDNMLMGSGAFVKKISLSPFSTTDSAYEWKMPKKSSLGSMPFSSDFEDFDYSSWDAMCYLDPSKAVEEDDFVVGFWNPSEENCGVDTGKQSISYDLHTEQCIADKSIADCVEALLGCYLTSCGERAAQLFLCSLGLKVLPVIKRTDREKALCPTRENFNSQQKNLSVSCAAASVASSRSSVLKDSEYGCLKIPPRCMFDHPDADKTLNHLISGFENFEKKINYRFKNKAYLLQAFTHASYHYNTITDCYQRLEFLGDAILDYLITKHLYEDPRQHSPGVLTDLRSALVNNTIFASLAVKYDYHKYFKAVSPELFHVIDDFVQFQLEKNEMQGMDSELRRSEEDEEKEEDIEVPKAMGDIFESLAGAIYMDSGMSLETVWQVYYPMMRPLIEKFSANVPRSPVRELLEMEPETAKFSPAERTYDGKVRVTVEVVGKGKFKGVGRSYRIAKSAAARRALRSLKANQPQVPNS

In US20210269798:

Experiments:
Dicer (DICER1) [1] = target: Dicer (DICER1) (UniProt Q9UPY3); assay: binding assay; details: protein in a lysate after overexpression, protein details: FLAG, anti-FLAG immunoprecipitated from HCT116
Dicer (DICER1) [2] = target: Dicer (DICER1) (UniProt Q9UPY3); assay: EMSA; details: binding reduced without Dicer; protein in a lysate after overexpression; protein details: FLAG, anti-FLAG immunoprecipitated from HCT116; variant of siRNA I (hnRNPH1)
[3] = down-regulated in Dicer IP, stated not to bind Dicer

Sequence	binding result (Dicer (DICER1) [1]; [3])	binding result (Dicer (DICER1) [2])	also measured
UGUAAACAUCCUUGACUGGAAG [hsa-miR-30e]	no binding		
UGUAAACAUCCCCGACUGGAAG [hsa-miR-30d]	no binding		
UGAAUCAGAAGAUGAAGUCAAC / GACUUCAUCUUCUGAUUCAAG [siRNA_C]		binds	
AGGCAAGAUGCUGGCAUAGCU [hsa-miR-31]			binding result (Dicer (DICER1) [1]; enriched in Dicer IP (total, nucleus, cytoplasm)): binds
UGAAUCAGAAGAUGAAGUCAACC / GACUUCAUCUUCUGAUUCAAG [siRNA_CC]		binds	

Results from cells or extracts need not show a direct contact. For some assays here: For at least one entry, the source does not settle the construct or the ends of the probe. For some assays here: Negatives hold for the conditions tested.
